Measurements from publication PMC4756679.
Numbering of substitutions follows the chain as printed. No constants are given. Whether binding was seen depends on the method and setting. Binding seen in cells or lysates may run through a third protein. Some results given as binding are weak or reduced against the parent protein; the word gives no strength. For some assays here: Sequences can lack the tags named with a protein.

Sequences of proteins named here, by UniProt entry; tags and fusion partners are left off. Residues count along the entry.
UniProt P56726, residues 33-793: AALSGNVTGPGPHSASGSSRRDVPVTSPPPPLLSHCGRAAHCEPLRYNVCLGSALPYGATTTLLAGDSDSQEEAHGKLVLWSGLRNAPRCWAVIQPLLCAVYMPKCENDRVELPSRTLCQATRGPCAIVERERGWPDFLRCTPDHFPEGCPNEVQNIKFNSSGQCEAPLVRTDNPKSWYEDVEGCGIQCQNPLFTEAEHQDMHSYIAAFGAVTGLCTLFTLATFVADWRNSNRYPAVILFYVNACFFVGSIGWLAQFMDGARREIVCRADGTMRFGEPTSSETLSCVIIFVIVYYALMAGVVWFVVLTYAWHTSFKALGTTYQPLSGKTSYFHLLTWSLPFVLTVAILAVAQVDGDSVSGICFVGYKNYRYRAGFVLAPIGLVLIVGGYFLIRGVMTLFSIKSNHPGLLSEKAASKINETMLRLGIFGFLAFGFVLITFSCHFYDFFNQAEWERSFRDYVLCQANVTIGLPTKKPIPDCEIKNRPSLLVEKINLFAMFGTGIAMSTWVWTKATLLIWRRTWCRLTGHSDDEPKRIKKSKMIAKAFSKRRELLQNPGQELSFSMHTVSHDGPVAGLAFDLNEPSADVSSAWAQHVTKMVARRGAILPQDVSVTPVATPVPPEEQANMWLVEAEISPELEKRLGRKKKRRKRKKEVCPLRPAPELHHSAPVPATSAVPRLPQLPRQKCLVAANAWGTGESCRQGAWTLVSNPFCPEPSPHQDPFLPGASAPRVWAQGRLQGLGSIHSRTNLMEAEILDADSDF

Key:
GST-EHD1 = target: T1, GST-EHD1 (UniProt Q9H4M9); experiment: pull-down; GST fusion protein (20 ug) on glutathione Sepharose-4B beads (30 C, 1 hour), then incubated with extracts of NIH3T3 SMO-GFP cells (starved, SAG 24 hours) at 4 C overnight; Western blot for Smoothened and GST; only the target purified
T1 sequence: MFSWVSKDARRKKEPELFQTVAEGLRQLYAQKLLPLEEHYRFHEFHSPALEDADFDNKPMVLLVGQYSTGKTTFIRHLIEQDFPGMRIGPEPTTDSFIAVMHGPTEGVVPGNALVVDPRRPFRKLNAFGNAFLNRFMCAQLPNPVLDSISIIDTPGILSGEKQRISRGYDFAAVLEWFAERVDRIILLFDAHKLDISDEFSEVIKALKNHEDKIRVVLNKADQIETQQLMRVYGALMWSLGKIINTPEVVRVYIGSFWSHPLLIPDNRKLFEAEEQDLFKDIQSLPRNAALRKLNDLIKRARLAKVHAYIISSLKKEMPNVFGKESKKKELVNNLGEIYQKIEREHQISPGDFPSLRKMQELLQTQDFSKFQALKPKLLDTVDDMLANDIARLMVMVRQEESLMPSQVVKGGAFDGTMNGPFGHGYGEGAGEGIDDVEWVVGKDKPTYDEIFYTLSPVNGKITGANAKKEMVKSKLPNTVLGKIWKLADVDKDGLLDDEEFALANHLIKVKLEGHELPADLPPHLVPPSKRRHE

[1] = target: T2, EHD1 (endogenous) (mouse (endogenous in NIH3T3)) (UniProt Q9WVK4); experiment: co-IP; EHD1 antibody (Abcam ab109311) cross-linked to Protein G magnetic beads; whole cell lysates of NIH3T3 cells stably expressing SMO-GFP, starved and treated with SAG (24 hrs); SMO detected by immunoblot; control IP with non-specific rabbit IgG
T2 sequence: T1 sequence with P350S, V408A, V526I

binding (GST-EHD1): binds
binding [1]: binds
Substance: SMO-GFP (Smoothened fused to GFP) (from UniProt P56726 33-793) (receptor)
